Experimental data from the supplement of paper PMC10849652.
The other results are listed elsewhere or left out.

Chains of the proteins cited; added tags and fusions are not shown. Lines headed by an entry give the natural chain unless they say otherwise; changes in a name come on top.
UniProt Q7L4E1: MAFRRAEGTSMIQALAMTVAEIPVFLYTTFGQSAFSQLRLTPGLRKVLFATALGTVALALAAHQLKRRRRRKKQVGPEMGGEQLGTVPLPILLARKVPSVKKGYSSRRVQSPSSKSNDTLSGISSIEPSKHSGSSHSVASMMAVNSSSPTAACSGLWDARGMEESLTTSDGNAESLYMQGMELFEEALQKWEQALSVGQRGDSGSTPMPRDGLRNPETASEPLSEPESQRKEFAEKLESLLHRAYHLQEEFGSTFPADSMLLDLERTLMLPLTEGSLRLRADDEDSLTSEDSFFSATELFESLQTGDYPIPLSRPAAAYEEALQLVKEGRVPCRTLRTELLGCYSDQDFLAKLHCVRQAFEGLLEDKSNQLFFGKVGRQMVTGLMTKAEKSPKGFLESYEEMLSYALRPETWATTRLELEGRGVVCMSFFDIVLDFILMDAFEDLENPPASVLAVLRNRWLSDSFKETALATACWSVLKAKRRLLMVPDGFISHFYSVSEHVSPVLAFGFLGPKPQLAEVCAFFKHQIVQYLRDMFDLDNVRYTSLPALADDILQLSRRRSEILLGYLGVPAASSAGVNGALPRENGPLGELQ
UniProt Q15773: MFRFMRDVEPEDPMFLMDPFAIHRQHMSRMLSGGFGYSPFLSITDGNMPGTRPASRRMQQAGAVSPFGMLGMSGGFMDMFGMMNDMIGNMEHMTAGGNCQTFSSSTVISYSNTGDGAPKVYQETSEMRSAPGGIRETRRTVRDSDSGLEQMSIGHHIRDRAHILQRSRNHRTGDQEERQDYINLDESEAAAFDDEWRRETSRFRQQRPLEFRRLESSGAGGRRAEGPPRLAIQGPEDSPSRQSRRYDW
UniProt O75970: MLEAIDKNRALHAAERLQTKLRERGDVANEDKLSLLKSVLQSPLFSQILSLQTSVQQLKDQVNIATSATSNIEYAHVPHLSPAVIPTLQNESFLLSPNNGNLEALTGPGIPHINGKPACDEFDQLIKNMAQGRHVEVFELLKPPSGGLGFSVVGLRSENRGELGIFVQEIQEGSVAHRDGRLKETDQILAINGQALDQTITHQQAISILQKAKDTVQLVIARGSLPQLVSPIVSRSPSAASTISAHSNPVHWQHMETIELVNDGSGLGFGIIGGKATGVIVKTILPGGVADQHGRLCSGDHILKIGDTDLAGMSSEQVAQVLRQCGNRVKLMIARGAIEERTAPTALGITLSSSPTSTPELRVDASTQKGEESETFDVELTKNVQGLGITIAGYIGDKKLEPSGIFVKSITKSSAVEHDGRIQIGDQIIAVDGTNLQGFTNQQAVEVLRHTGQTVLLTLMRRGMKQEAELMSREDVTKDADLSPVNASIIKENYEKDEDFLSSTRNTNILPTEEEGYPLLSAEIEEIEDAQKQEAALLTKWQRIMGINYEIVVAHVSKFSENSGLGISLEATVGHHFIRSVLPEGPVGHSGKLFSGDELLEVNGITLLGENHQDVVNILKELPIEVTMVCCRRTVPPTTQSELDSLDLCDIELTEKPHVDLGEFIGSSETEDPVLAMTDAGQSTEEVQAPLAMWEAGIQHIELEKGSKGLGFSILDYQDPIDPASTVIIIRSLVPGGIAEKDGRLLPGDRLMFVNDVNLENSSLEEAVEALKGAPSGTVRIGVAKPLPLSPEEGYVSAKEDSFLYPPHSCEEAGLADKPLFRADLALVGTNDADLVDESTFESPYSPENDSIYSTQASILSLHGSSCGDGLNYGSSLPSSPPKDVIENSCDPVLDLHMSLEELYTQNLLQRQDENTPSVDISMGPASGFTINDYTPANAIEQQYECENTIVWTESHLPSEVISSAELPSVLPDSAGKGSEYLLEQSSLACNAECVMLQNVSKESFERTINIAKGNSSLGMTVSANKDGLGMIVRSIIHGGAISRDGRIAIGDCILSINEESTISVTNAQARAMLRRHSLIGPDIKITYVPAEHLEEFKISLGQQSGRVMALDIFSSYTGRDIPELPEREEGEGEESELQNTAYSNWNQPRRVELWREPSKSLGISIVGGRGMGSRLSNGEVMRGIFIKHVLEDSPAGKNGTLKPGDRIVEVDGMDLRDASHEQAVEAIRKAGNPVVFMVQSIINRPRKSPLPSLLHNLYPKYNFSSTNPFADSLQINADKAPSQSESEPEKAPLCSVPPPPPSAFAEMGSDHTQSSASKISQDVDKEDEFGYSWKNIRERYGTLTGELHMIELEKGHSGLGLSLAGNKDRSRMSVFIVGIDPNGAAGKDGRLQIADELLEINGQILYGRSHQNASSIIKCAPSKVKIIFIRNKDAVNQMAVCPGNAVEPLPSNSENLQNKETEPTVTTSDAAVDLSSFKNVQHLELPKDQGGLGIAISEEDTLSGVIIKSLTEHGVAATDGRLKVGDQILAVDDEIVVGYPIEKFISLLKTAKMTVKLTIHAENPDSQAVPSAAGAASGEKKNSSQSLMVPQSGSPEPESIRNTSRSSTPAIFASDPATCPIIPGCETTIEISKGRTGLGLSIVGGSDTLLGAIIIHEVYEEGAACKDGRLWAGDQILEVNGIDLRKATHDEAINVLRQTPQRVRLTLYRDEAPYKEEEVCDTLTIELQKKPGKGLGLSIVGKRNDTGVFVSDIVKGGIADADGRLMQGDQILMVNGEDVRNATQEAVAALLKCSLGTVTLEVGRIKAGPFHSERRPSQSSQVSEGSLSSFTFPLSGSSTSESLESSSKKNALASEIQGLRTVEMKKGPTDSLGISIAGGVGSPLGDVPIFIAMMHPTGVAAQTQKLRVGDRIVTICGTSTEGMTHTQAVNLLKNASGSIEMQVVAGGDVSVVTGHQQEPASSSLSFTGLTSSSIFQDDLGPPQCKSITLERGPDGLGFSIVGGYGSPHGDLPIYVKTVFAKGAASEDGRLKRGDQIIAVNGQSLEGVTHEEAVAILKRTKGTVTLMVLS
UniProt Q4G0A6: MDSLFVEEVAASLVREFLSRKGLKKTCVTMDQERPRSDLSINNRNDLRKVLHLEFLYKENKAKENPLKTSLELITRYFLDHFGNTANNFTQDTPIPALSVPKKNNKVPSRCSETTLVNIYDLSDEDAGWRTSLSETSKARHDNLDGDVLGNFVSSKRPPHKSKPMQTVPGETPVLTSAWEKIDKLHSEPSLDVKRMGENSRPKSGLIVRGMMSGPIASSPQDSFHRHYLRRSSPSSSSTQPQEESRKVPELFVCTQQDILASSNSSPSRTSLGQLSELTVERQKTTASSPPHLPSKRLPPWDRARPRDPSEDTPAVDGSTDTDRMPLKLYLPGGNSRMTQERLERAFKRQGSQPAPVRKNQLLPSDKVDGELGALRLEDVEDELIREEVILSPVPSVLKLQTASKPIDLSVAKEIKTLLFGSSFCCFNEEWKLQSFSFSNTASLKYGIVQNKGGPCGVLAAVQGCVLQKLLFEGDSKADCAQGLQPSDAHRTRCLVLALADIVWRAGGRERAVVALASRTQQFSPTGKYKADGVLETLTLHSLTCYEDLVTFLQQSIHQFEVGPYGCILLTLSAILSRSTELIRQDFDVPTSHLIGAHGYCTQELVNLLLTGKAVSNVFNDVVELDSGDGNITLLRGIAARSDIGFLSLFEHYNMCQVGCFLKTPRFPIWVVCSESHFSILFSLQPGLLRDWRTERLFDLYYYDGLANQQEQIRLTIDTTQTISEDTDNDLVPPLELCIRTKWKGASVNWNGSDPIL
UniProt P16455, whole entry, looked up: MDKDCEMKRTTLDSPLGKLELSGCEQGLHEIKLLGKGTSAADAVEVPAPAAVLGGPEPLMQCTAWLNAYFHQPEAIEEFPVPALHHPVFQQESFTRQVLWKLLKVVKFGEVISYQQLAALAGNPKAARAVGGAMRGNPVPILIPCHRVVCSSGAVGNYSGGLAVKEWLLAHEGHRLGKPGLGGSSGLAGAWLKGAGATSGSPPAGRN
UniProt Q99550: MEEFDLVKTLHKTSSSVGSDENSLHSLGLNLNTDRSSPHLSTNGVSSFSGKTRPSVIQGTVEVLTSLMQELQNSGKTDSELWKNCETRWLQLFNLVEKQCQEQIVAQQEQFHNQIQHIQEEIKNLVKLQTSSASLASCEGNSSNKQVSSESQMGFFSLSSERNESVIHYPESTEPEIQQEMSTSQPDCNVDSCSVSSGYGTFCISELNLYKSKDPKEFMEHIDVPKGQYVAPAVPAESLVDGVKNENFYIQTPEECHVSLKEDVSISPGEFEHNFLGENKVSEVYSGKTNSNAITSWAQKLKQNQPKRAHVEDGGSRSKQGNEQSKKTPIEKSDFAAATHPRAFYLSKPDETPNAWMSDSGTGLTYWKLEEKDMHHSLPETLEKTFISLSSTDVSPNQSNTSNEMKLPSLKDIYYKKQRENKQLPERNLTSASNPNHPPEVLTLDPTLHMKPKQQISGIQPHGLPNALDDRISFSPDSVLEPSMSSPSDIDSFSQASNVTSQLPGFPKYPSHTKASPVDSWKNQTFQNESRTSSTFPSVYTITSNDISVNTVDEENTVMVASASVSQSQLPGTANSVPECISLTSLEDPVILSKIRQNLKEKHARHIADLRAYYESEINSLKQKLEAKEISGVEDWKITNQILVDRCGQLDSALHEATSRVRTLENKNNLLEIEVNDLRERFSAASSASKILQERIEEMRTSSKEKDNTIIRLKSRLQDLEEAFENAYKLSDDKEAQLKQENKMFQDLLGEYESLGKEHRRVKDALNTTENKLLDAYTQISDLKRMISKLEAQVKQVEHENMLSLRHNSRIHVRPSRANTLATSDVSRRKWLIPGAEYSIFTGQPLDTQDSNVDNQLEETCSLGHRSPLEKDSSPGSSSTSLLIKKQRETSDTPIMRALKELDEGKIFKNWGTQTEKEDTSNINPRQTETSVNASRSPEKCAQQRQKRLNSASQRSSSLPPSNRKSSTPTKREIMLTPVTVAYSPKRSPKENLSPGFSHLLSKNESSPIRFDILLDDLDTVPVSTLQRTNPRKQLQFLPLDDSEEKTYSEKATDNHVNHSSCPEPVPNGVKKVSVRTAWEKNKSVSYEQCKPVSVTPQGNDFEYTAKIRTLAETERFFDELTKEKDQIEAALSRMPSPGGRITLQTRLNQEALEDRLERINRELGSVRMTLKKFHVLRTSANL
UniProt Q9NPA3, whole entry, looked up: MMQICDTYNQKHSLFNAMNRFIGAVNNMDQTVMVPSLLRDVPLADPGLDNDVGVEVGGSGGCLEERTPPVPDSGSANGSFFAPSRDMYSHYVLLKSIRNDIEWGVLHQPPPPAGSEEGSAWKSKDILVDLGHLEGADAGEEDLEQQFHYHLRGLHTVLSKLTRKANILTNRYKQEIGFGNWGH
UniProt P26572: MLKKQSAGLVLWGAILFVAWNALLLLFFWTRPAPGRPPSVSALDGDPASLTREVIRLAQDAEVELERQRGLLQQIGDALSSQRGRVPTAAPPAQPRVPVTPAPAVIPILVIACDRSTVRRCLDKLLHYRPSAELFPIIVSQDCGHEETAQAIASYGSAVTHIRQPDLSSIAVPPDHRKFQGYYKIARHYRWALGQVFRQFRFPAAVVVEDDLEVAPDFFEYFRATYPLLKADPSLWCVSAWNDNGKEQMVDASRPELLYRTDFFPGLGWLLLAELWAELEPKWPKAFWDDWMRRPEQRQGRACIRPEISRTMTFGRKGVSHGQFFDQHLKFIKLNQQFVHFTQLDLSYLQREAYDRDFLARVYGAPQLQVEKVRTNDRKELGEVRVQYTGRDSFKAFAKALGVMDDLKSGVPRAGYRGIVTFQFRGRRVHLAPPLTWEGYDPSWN
UniProt Q29983, whole entry, looked up: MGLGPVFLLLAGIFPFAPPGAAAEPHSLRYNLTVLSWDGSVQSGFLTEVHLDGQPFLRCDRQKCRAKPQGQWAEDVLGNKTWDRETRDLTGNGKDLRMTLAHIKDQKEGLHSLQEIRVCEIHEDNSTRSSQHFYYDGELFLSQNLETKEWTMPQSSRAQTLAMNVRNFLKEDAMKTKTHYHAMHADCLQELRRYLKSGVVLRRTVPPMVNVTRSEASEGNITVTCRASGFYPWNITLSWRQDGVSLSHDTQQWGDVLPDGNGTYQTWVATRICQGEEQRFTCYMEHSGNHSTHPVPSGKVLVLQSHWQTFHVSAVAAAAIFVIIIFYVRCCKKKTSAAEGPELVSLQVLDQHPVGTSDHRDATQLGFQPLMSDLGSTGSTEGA
UniProt Q96FF7: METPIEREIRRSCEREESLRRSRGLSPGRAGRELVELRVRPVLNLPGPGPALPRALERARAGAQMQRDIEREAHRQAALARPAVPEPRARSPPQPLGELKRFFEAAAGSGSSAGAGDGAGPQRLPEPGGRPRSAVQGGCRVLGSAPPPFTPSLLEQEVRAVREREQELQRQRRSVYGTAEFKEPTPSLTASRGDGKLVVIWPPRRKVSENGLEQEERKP

Tests used:
Experiment in all cases: log2 fold change, soluble protein after heating vs DMSO (PISA); higher = thermal stabilisation; K562 lysate, 10 uM; active = over 0.2 and 3.5 SD of the protein, either way, in both replicates (recomputed)
ralimetinib = compound: CC(C)(C)Cn1c(N)nc2ccc(-c3[nH]c(C(C)(C)C)nc3-c3ccc(F)cc3)nc21 [ralimetinib]
In short: (§1)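 A 30 min treatment with 10 μM compound was applied to crude K562 extract at 1 mg/mL protein in PBS pH 7.4 with 1 mM MgCl2. Heating for 3 min spanned 48°C-58°C, after which aliquots were pooled, adjusted to 0.5% NP-40 at 4°C and spun at 21,000xg for 90 min. TMTpro 16plex LC-MS/MS of the supernatant, with channel sums equalised, gave values recorded as log-two fold change in thermal stability against solvent controls, from duplicates.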

[1] = compound: CC(C)(O)CC(=O)NCCn1ccc2ncnc(Nc3ccc(Oc4cccc(C(F)(F)F)c4)c(Cl)c3)c21
In short: as §1

[2] = compound: CC(C)C1=C2N=C(C=C(N2N=C1)NCC3=CC=CC=C3)NCCCCCCN
In short: as §1

[3] = compound: CC1=C(C2=C(C=C1)C(=O)C3=CC=CC=C3N2CCCN)C
In short: as §1

[4] = compound: CC1=C(C=C(C=C1)NC(=O)C2=CC(=CC=C2)N(C)C)NC(=O)C3=CC=C(C=C3)O
In short: as §1

[5] = compound: CC[C@@H]1C(=O)N(C)c2cnc(Nc3ccc(C(=O)NC4CCN(C)CC4)cc3OC)nc2N1C1CCCC1
In short: as §1

[6] = compound: CCn1c(C(=O)N(C2CC2)C2CC2)cc2c3c(ncn3C)c(Nc3cc(C)n(C)n3)nc21
In short: as §1

saracatinib = compound: CN1CCN(CCOc2cc(OC3CCOCC3)c3c(Nc4c(Cl)ccc5c4OCO5)ncnc3c2)CC1 [saracatinib]
In short: as §1

ibrutinib = compound: C=CC(=O)N1CCC[C@@H](n2nc(-c3ccc(Oc4ccccc4)cc3)c3c(N)ncnc32)C1 [ibrutinib]
In short: as §1

[7] = compound: CC1=C(C(CC(=O)N1)C2=CC=C(C=C2)C(F)(F)F)C(=O)NC3=C(C=C4C(=C3)C=NN4)F
In short: as §1

[8] = compound: CC1=C(C=C(C=C1)NC(=O)C2=CC(=CC=C2)C(C)(C)C#N)NC3=CC4=C(C=C3)N=CN(C4=O)C
In short: as §1

vemurafenib = compound: CCCS(=O)(=O)Nc1ccc(F)c(C(=O)c2c[nH]c3ncc(-c4ccc(Cl)cc4)cc23)c1F [vemurafenib]
In short: as §1

barasertib = compound: CCN(CCCOc1ccc2c(Nc3cc(CC(=O)Nc4cccc(F)c4)[nH]n3)ncnc2c1)CCOP(=O)(O)O [barasertib]
In short: as §1

[9] = compound: CCn1cc(-c2ccnc3[nH]c(-c4cccc(CN(C)C)c4)cc23)c(-c2ccc(NC(=O)N(C)C)cc2)n1
In short: as §1

[10] = compound: CN1CCC(CNc2ccc3ncc(-c4cccc(OC(F)(F)F)c4)n3n2)CC1
In short: as §1

sotrastaurin = compound: CN1CCN(c2nc(C3=C(c4c[nH]c5ccccc45)C(=O)NC3=O)c3ccccc3n2)CC1 [sotrastaurin]
In short: as §1

[11] = compound: CC(=O)c1cnc2ccc(-c3cc(Cl)c(O)c(Cl)c3)nc2c1N[C@H]1CC[C@H](CN(C)C)CC1
In short: as §1

[12] = compound: CC1=CC=C(C=C1)SC2=C3C=C(SC3=CN=C2)C(=O)N
In short: as §1

[13] = compound: CCCS(=O)(=O)Nc1ccc(F)c(C(=O)c2c[nH]c3ncc(Cl)cc23)c1F
In short: as §1

volasertib = compound: CC[C@@H]1C(=O)N(C)c2cnc(Nc3ccc(C(=O)N[C@H]4CC[C@H](N5CCN(CC6CC6)CC5)CC4)cc3OC)nc2N1C(C)C [volasertib]
In short: as §1

Measured: log2 fold change

MIGA2 (UniProt Q7L4E1)
inactive: ralimetinib -0.008 | [1] -0.065 | [2] -0.016 | [3] 0.038 | [4] 0.061 | [5] -0.22 | [6] -0.038 | saracatinib 0.101

MLF2 (UniProt Q15773)
inactive: ibrutinib 0.016 | ralimetinib -0.034 | [1] 0.022 | [2] -0.003 | [7] 0.1 | [3] 0.011 | [8] 0.061 | [4] -0.018 | vemurafenib -0.047 | barasertib 0.011 | [5] 0.107 | [6] -0.007 | [9] 0.02 | [10] -0.028 | saracatinib 0.05 | sotrastaurin -0.01

MRC2 (UniProt Q9UBG0)
inactive: [2] -0.015 | [7] 0.002 | [3] 0.03 | [8] 0.133 | [5] 0.205 | [9] 0.053 | [10] 0.124 | saracatinib 0.301 | sotrastaurin -0.054

MMS22L (UniProt Q6ZRQ5)
inactive: ibrutinib -0.025 | [11] 0.049 | [2] -0.085 | [7] 0.007 | [3] -0.042 | [8] -0.049 | [12] 0.007 | vemurafenib -0.044 | [13] 0.013 | barasertib 0.083 | [5] -0.182 | volasertib -0.119 | [9] 0.077 | [10] -0.083 | saracatinib 0.092 | sotrastaurin 0.012

MIDEAS, A0A1C7CYX1
inactive: [11] 0 | ralimetinib -0.004 | [1] 0.044 | [2] -0.124 | [3] 0.15 | [8] -0.23 | [4] -0.22 | [12] 0.012 | [13] -0.021 | volasertib -0.056 | [6] 0.102 | saracatinib 0.261 | sotrastaurin -0.062

3 consecutive entries from above, for reference:
MIGA2 (UniProt Q7L4E1)
inactive: ralimetinib -0.008 | [1] -0.065 | [2] -0.016 | [3] 0.038 | [4] 0.061 | [5] -0.22 | [6] -0.038 | saracatinib 0.101

MLF2 (UniProt Q15773)
inactive: ibrutinib 0.016 | ralimetinib -0.034 | [1] 0.022 | [2] -0.003 | [7] 0.1 | [3] 0.011 | [8] 0.061 | [4] -0.018 | vemurafenib -0.047 | barasertib 0.011 | [5] 0.107 | [6] -0.007 | [9] 0.02 | [10] -0.028 | saracatinib 0.05 | sotrastaurin -0.01

MRC2 (UniProt Q9UBG0)
inactive: [2] -0.015 | [7] 0.002 | [3] 0.03 | [8] 0.133 | [5] 0.205 | [9] 0.053 | [10] 0.124 | saracatinib 0.301 | sotrastaurin -0.054

Carrying on.

MPDZ (UniProt O75970)
inactive: [11] 0.264 | ralimetinib 0.024 | [1] -0.157 | [2] -0.015 | [7] -0.173 | [3] 0.062 | [8] 0.057 | [4] 0.076 | [12] -0.029 | vemurafenib 0.059 | [13] 0.03 | [5] 0 | volasertib -0.026 | [6] -0.115 | [9] 0.129 | [10] -0.017 | saracatinib 0.088 | sotrastaurin 0.209

MINDY4 (UniProt Q4G0A6)
inactive: ibrutinib 0.146 | ralimetinib -0.01 | [1] 0.04 | [7] 0.094 | [3] 0.148 | [4] 0.198 | barasertib -0.169 | [6] -0.085 | [9] -0.002 | [10] -0.011 | saracatinib -0.053

MGMT (UniProt P16455)
inactive: ralimetinib -0.016 | [1] 0.064 | [3] 0.09 | [4] 0.115 | [6] 0.014 | saracatinib -0.205

MRAS (UniProt O14807)
inactive: ibrutinib 0.047 | [11] -0.019 | [2] -0.044 | [7] 0.035 | [3] -0.374 | [8] -0.032 | [12] 0.049 | vemurafenib 0.003 | [13] 0.05 | barasertib -0.044 | [5] 0.058 | volasertib 0.025 | [9] 0.217 | [10] -0.061 | saracatinib 0.117 | sotrastaurin 0

MRPL22 (UniProt Q9NWU5)
inactive: [11] 0.001 | ralimetinib 0.018 | [1] -0.033 | [2] 0.058 | [7] 0.001 | [8] -0.017 | [4] 0.051 | [12] 0.069 | [13] 0.001 | volasertib -0.002 | [6] -0.069 | [9] -0.006 | [10] -0.045 | sotrastaurin -0.013

MPHOSPH9 (UniProt Q99550)
inactive: ibrutinib 0.001 | [2] 0.123 | [8] -0.087 | vemurafenib 0.022 | barasertib 0.074 | [5] 0.176 | [9] -0.061 | [10] -0.055 | sotrastaurin 0.071

MID1IP1 (UniProt Q9NPA3)
inactive: ibrutinib 0.035 | ralimetinib -0.054 | [1] 0.051 | [2] -0.024 | [7] 0.047 | [3] -0.005 | [8] 0.023 | [4] -0.084 | vemurafenib -0.01 | barasertib 0.085 | [5] -0.015 | [6] 0.063 | [9] -0.001 | [10] -0.049 | saracatinib 0.017 | sotrastaurin 0.041

MGAT1 (UniProt P26572)
inactive: [11] -0.038 | ralimetinib 0.069 | [1] -0.023 | [2] -0.022 | [7] 0.14 | [3] 0.061 | [8] -0.027 | [4] -0.058 | [12] -0.013 | vemurafenib -0.119 | [13] -0.034 | [5] 0.043 | volasertib -0.029 | [6] -0.056 | [9] -0.109 | [10] -0.006 | saracatinib 0.011 | sotrastaurin 0.072

MICA (UniProt Q29983)
inactive: ibrutinib 0.077 | barasertib -0.194 | [9] -0.373 | [10] 0.139

MKKS (UniProt Q9HB66)
inactive: [11] 0.011 | ralimetinib 0.107 | [1] -0.012 | [2] -0.011 | [4] -0.037 | [12] 0 | vemurafenib -0.02 | [13] 0.108 | [5] 0.038 | volasertib -0.094 | [6] 0.045

MISP3 (UniProt Q96FF7)
inactive: [11] -0.184 | [7] -0.256 | [3] -0.072 | [12] -0.071 | [13] 0.004 | volasertib 0.08 | saracatinib 0.042

MINDY2 (UniProt Q8NBR6)
inactive: ibrutinib 0.054 | [11] 0.043 | ralimetinib 0.023 | [1] -0.023 | [7] 0.006 | [8] -0.039 | [4] 0.109 | [12] -0.04 | [13] -0.089 | barasertib -0.034 | [5] -0.004 | volasertib -0.045 | [6] 0.042 | [9] 0.089 | [10] 0 | sotrastaurin -0.083
